Assay results from PubChem BioAssay AID1458 (National Center for Advancing Translational Sciences (NCATS), 2008).
Out of some 210,000 compounds screened, about 5,900 (2.8%) were called active. Inconclusive results (about 5%) are left out. The call rests on the fitted dose curve; in most records, active means well fitted activation curve with a large enough effect; inconclusive means small, poorly fitted or top-dose-only effect; inactive means no such curve, though single readings can be large or run the other way. The list shows a part of the results, in another mix than the full data. Entries without a call were filed so in the source.

Assay: qHTS Assay for Enhancers of SMN2 Splice Variant Expression; further: nearly all actives have a fitted effect of over 55% in size; on activity change, positive = activation: % of control where 0% means no effect
Settings: HEK293 SMN2-luciferase splicing reporter, luminescence, 30-36 h; activity change, positive = activation: at 46.1 µM (top of the series) unless noted
In short: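 qHTS luciferase splicing reporter: luminescence rises when SMN2 exon 7 is included in transfected HEK293 cells. Compound exposure lasted 30-36 h at 37C, with 4.5 mM final sodium butyrate as control, followed by a ONE-Glo read.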
Potency means the concentration at half of the fitted maximal effect.

Row | Compound | activity change, positive = activation | Potency
1 | COC(=O)c1[nH]c2ccc(C)cc2c1NC(=O)CN1CCN(c2ccccc2)CC1 | inactive: -78.4% | –
2 | Cc1ccccc1C(=O)Nc1ccccc1 | 34.9% | –
3 | CN(C)C=NC(=O)c1ccc([N+](=O)[O-])c(CS(=O)(=O)c2ccc(Cl)cc2)c1 | -38.7% | –
4 | O=C1C2C3C=CC(C2C(=O)N1C1CCCCC1)C1C2C(=O)N(C4CCCCC4)C(=O)C2C31 (stereo not given) | inactive: -34.8% | –
5 | Nc1ccc(-c2nc3ccc(C(=O)O)cc3s2)cc1 | -58.6% | –
6 | CCn1c(C)cc(=S)c2ccccc21 | 32.8% | –
7 | COC(=O)N1CCN(c2ccc(C(C)=O)cc2)CC1 | 30.9% | –
8 | COc1ccc(-c2nnc(SCC(=O)N3CCc4ccccc4C3)o2)cc1 | -63.7% | –
9 | CCN(CC)S(=O)(=O)c1ccc(NC(=O)c2ccc3c(=O)n4c(nc3c2)CCCCC4)cc1 | inactive: -64.8% | –
10 | O=C1CC(c2ccncc2)c2cc3c(cc2N1)OCCO3 (stereo not given) | 38.8% | –
11 | N#Cc1nc(N2CCCCC2)nc(N2CCOCC2)n1 | -63.9% | –
12 | CC(C)(C)c1ccc(/C=N/Nc2ccc(C(=O)O)cc2)cc1 | inactive: -90.6% [at 1.84 µM] | –
13 | CCS(=O)(=O)c1c(S(=O)(=O)CC)c2cc(C(C)(C)C)ccn2c1C(=O)c1ccc(F)cc1 | 20.4% | –
14 | Cc1cc(C=C2C(=O)c3ccccc3C2=O)c(C)n1-c1ccccc1 | inactive: -70.9% | –
15 | Cc1cccc(-c2nnc(-c3ccc(N)cc3)o2)c1 | – | active: 4.47 µM
16 | COc1ccc(C(=O)O/N=C(/c2ccccc2)c2ccncc2)cc1 | 78.9% | –
17 | c1ccc(-c2nc(NCc3ccco3)c3ccccc3n2)nc1 | inactive: -9.83% | –
18 | O=C(Oc1ccc2c(=O)c(Oc3ccc4ccccc4c3)coc2c1)c1cccnc1 | -8.15% | –
19 | CC(C)CCOCC(=O)Nc1cccc(C(=O)O)c1 | – | active: 14.1 µM
20 | Cc1c(NC(=O)C(C)NCC2CCCO2)c(=O)n(-c2ccccc2)n1C (stereo not given) | 47.1% | –
21 | Cc1ccc(S(=O)(=O)c2c(C)nn(C(C)(C)C)c2OC(=O)c2ccc(Br)o2)cc1 | inactive: -70.4% | –
22 | CCOCc1c(C(=O)Nc2cc(OCC)c(N3CCOCC3)cc2OCC)oc2ccccc12 | inactive: -59.3% | –

Row | Compound | activity change, positive = activation | Potency
23 | CC1=Nn2c(nc3sc4c(c3c2=O)CCCC4)SC1 | – | active: 10 µM
24 | Cc1ccc(C(c2c(C)n(C)n(-c3ccccc3)c2=O)c2c(C)n(C)n(-c3ccccc3)c2=O)s1 | inactive: -30.9% | –
25 | CN(C)c1ccc(NC(=S)c2ccccn2)cc1 | – | active: 0.501 µM
26 | Clc1ccc(-c2noc(CSc3nnc(-c4ccncc4)n3-c3ccccc3)n2)cc1 | -66.7% | –
27 | CCCCN(CCCC)S(=O)(=O)c1ccc(NC(=O)c2ccc([N+](=O)[O-])cc2Cl)cc1 | -77.6% | –
28 | CCC(=O)c1ccc(OCC(O)CN(CCc2ccccc2)Cc2ccccc2)cc1 (stereo not given) | -51.1% | –
29 | NNCCc1ccccc1 | – | inactive
30 | O=C(NCCN1CCOCC1)N1CCOCC1 | 35.3% | –
31 | COc1ccccc1Nc1nc(N)nc(CSc2ncccn2)n1 | 49.5% | –
32 | Cc1cc(O)c(C(C)C)cc1NC(=O)Cn1nc(C)c2ccccc2c1=O | 37.8% | –
33 | Nc1nc(Cn2nnc(-c3ccccc3Cl)n2)nc(N2CCOCC2)n1 | 26.5% | –
34 | CCOC(=O)c1c(C=O)c(C)n(Cc2ccc(Cl)cc2)c1C | 37.8% | –
35 | CCc1ccc(NC(=O)N(C2CCCCC2)C(C)c2cccnc2)cc1 (stereo not given) | inactive: -21% | –
36 | O=C(c1ccco1)N1CCN(S(=O)(=O)c2ccc(F)cc2)CC1 | 38.1% | –
37 | COCCn1c(SCC(=O)N2CCCCC2)nc2cccnc21 | 29.6% | –
38 | CCN(CC)CCN(C(=O)c1ccc(Br)s1)c1nc2cc3c(cc2s1)OCCO3 | -17.8% | –
39 | CS(=O)(=O)c1cccc(NC(=O)c2ccc(Cl)c(Cl)c2)c1 | 51.3% | –
40 | COc1ccccc1N1CCN(C2=Nc3cccc4cccc2c34)CC1 | 55.6% | –
41 | C=CCOc1cccc(C2/C(=C(\O)c3ccc(F)cc3)C(=O)C(=O)N2CCN(C)C)c1 (stereo not given) | 24.9% | –
42 | COc1nc(NCCN2CCOCC2)nc(Nc2ccccc2)n1 | 43.1% | –
43 | COc1ccc(CCC(=O)N2CCN(C3CCCCC3)CC2)cc1 | 47.1% | –
44 | CCN1CCN(Cc2ccc(NC(=O)Nc3ccccc3OC)cc2)CC1 | 130% | –

Row | Compound | activity change, positive = activation | Potency
45 | NC1=NC(=Nc2cccc(Cl)c2)c2ccccc21 | -44.9% | –
46 | COc1cccc(NC(=O)COC(=O)c2c(F)cccc2Cl)c1 | 62.1% | –
47 | O=C(N/N=C/c1ccc(OC(F)F)cc1)C1=COCCO1 | – | active: 11.2 µM
48 | COc1ccc(-c2cc(=O)c3ccccc3o2)cc1 | – | active: 10 µM
49 | O=C(Nc1nc2ccccc2[nH]1)c1ccc(Br)o1 | – | active: 12.6 µM
50 | O=C(/C=C/c1ccc(O)c(O)c1)NC(=O)c1ccccc1O | – | active: 31.6 µM
51 | CCOC(=O)c1sc(NC(=O)c2cc(-c3ccccc3)nc3ccccc23)c(C#N)c1C | inactive: -52% | –
52 | O=[N+]([O-])c1ccccc1CSc1nnc2ccccn12 | 188% | –
53 | COc1ccc(C(=O)Nc2ccc(-c3ccc(C)o3)cc2)cc1S(=O)(=O)N1CCOCC1 | -69.1% | –
54 | O=C(Nc1ccc2c(c1)OCO2)c1c(F)cccc1F | – | active: 10 µM
55 | Cc1ccc(S(=O)(=O)NCCCN2CCOCC2)cc1C | 38% | –
56 | C=CCN1C(=O)/C(=C\c2ccc(C)cc2)N=C1SCC(=O)NCCC | 30.3% | –
57 | COC(=O)Cc1ccc(NC(=S)N2CCN(c3ccc(OC)cc3)CC2)cc1 | inactive: -46.1% | –
58 | CCOC(=O)C1CCN(C(=S)Nc2ccc(CC)cc2)CC1 | -63.7% | –
59 | CC(OC(=O)c1cc(=O)[nH]c2ccccc12)c1ccccc1 (stereo not given) | 45.5% | –
60 | Nc1[nH]c(N=NC(=O)c2ccc(F)cc2)c2ccccc12 | 109% | –
61 | Cc1cc(/C=N/NC(N)=O)c(C)n1-c1ccc(F)cc1 | inactive: -28.2% | –
62 | O=C(NCCCN1CCCC1=O)c1cccc(C(F)(F)F)c1 | 35.4% | –
63 | O=C(N/N=C/c1cc2c3c(c1O)CCCN3CCC2)c1ccccc1O | inactive: -102% | –
64 | COc1cccc(-c2cn3nc(C)c(C)nc3n2)c1 | – | active: 12.6 µM
65 | O=C(O)CCCN1C(=O)NC2NC(=O)NC21 (stereo not given) | 34.9% | –
66 | COc1cccc(C(=O)c2c(C)c(CCC#N)n3ccccc23)c1OC | 47.3% | –

Row | Compound | activity change, positive = activation | Potency
67 | O=C(COc1ccc(Cl)cc1)N1CCN(C(=O)c2cccc(F)c2)CC1 | 30.1% | –
68 | CCCCc1ccc(NC(=O)C(=O)NCCN2CCN(Cc3ccc([N+](=O)[O-])cc3)CC2)cc1 | inactive: -77.1% | –
69 | COc1ccc(Oc2ccc(/C=C/C(=O)c3cccc(OC)c3)cc2[N+](=O)[O-])cc1 | inactive: -33.1% | –
70 | CCC(=O)N/C(=N/c1nc(C)cc(C)n1)Nc1cccc(OC)c1 | inactive: -19.3% | –
71 | COc1ccc(CN(C(=O)c2nsc(Cl)c2Cl)C(C(=O)NC2CCCC2)c2ccc(OC)cc2)cc1 (stereo not given) | -32.8% | –
72 | O=c1c2c(nc3nc(Cc4ccccc4)[nH]n13)CCC2 | 58.9% | –
73 | Cc1cnc(NC(=O)CC2CCCC2)s1 | – | active: 17.8 µM
74 | COCCCNC(=O)c1ccccc1NS(=O)(=O)c1ccc(C)cc1 | 37.6% | –
75 | O=[N+]([O-])/C=C\c1ccc(N2CCCC2)c(F)c1 | – | active: 5.62 µM
76 | COc1ccc(Cl)cc1N(CC(=O)NC(C(C)C)C(C)C)S(C)(=O)=O | 5.13% | –
77 | N#CC1(C#N)COC23CCCCC2C1(C#N)C(=N)O3 (stereo not given) | -88.3% | –
78 | COC(=O)c1cccc(NC2CC(=O)N(c3ccc(OC)c(OC)c3)C2=O)c1 (stereo not given) | 56.2% | –
79 | COc1ccc(NC(=S)Nc2ncccc2C)cc1OC | – | active: 35.5 µM
80 | Cc1ccccc1CSc1nnc(C)n1N | 38.8% | –
81 | CC(=O)c1c(C)[nH]c(C(=O)NC2=NCCS2)c1C | 91% | –
82 | O=C(CSc1nc(-c2ccccc2)cs1)Nc1cccc([N+](=O)[O-])c1 | -57.2% | –
83 | Cc1cc(C(C)(C)C)cc(S(=O)(=O)NCC(=O)O)c1C | 42.8% | –
84 | O=C(CNc1ccccc1OC(F)F)N1CCc2ccccc21 | – | active: 14.1 µM
85 | Cc1ccc(-c2nnc(-c3ccc(NC(=O)Cc4cccs4)cc3)o2)cc1 | -36% | –
86 | CCCCS(=O)(=O)Nc1ccc2ncn(C)c(=O)c2c1 | 29.5% | –
87 | CC(C)c1nc(SCC(=O)N2CCN(c3ccccc3)CC2)c2c(=O)n(C)c(=O)n(C)c2n1 | -55.3% | –
88 | Nc1nc2ccccc2n1C(=O)c1ccco1 | – | active: 12.6 µM

Looked up one by one from the list above, four records:
Row | Compound | activity change, positive = activation | Potency
65 | O=C(O)CCCN1C(=O)NC2NC(=O)NC21 (stereo not given) | 34.9% | –
5 | Nc1ccc(-c2nc3ccc(C(=O)O)cc3s2)cc1 | -58.6% | –
48 | COc1ccc(-c2cc(=O)c3ccccc3o2)cc1 | – | active: 10 µM
57 | COC(=O)Cc1ccc(NC(=S)N2CCN(c3ccc(OC)cc3)CC2)cc1 | inactive: -46.1% | –

Further entries:

Row | Compound | activity change, positive = activation | Potency
89 | CC(=O)c1cccc(NS(=O)(=O)N2CCCCC2)c1 | 19.9% | –
90 | CCOc1ccccc1-n1c(SCC(N)=O)nnc1-c1ccco1 | 41.4% | –
91 | CNc1ccc(/C=C(\C#N)c2ccccn2)cc1[N+](=O)[O-] | – | active: 10 µM
92 | O=C(CNC(=S)NC(=O)c1cccs1)c1ccccc1 | 126% | –
93 | Cc1ccc(CSCCNC(=O)/C=C/c2ccccc2Cl)cc1 | 27.3% | –
94 | COc1ccc(-c2cc(=O)[nH]c(NCc3ccccc3)n2)cc1 | 42.7% | –
95 | COc1ccc2cc(CCNC(=O)c3cccs3)c(=O)[nH]c2c1 | – | active: 6.31 µM
96 | CCOC(=O)Cc1csc(NC(=O)COc2ccccc2OC)n1 | 31.7% | –
97 | CC#CCOC(=O)c1c(C)nc2sc3c(c2c1N)CCC(O)C3 (stereo not given) | inactive: -59.3% | –
98 | Cc1cccc(OCC(=O)NC(=S)Nc2ccc(S(=O)(=O)NC3CCCCC3)cc2)c1 | -18.3% | –
99 | O=C(c1ccco1)N1CCC[C@@]2(CCN(c3cccc(-c4ccccc4)c3)C2)C1 | inactive: -33.8% | –
100 | CC(C)NC(=O)COc1ccccc1C#N | inactive: -8.55% | –
101 | Cc1cc(C)c2nc(NNC(=O)c3cc(-c4cccs4)nc4ccccc34)sc2c1 | -95.6% | –
102 | COC(=O)CC1C(=O)NCCN1C(=O)CSc1nnc(Nc2ccc(OC)cc2)s1 (stereo not given) | 42.3% | –
103 | COc1ccc(-n2nc(C(=O)N3CCN(Cc4ccc5c(c4)OCO5)CC3)c3ccccc3c2=O)cc1 | 55.8% | –
104 | Cc1nc2nc(-c3cccnc3)nn2c(C)c1Cl | 78.7% | –
105 | N/C(=N\OC(=O)c1cc(Cl)ccc1Cl)c1ccncc1 | 69.8% | –
106 | COc1ccccc1-c1nccc(NCc2cccc(C)c2)n1 | inactive: -31.8% | –
107 | CN(C)c1ccc(/C=N/NC(=O)c2ccc(CN3CCOCC3)cc2)cc1Br | inactive: -38.3% | –
108 | C=CCn1c(SCC(=O)Nc2cc(C)nn2-c2ccccc2)nnc1C1CCCCC1 | 30.3% | –
109 | COCCn1c(COc2ccccc2)nnc1SCC(N)=O | 57.5% | –
110 | Cn1c2ccccc2c2cc(C(=O)N3CCOCC3)sc21 | inactive: 3.7% | –
